PubChem BioAssay AID1347075 (National Center for Advancing Translational Sciences (NCATS), 2019)
The campaign covered roughly 400,000 compounds. About 5,500 (1.4%) were called active. The shares of active, inactive and inconclusive entries below differ from those in the screen. Calls follow the shape of the dose curve; as a rule, active = well fitted cell-killing curve with a large enough effect; inconclusive = small, poorly fitted or top-dose-only effect, or effect the other way; inactive = flat fitted curve, though single readings scatter. A potency beside an inconclusive call is a rough fit, not a confirmed value.

assay: qHTS assay for MDR1-selective chemotherapeutics: Primary screen using the parental adenocarcinoma cell KB-3-1; settings: KB-3-1 viability, CellTiter-Glo ATP luminescence, 72 h; activity change, negative = cytotoxic: at 46.1 µM (top of the series); also: nearly all actives have a fitted effect of over 60% in size
Procedure, shortened: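 Cytotoxicity in the drug-sensitive parental line KB-3-1 was scored as loss of CellTiter-Glo luminescence following 72 h incubation with compound. Values come from curve fitting of normalized concentration-response data.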
% is scaled to controls: 0 for no effect and ±100 for the full control effect; potency is read from the fitted curve at half-maximal effect.

SMILES	Potency	activity change, negative = cytotoxic
CCOc1cc(CNc2ccc3c(c2)OCCO3)cc(Br)c1OCC	active: 5.17 µM	–
Cc1nn(C)c(C)c1CN(C(=O)C1CCC(=O)N(C2CCCCCC2)C1)C(C)C (stereo not drawn)	–	inactive: -2.06%
CCN(CC)c1ccc(/C=C2\C(=O)N(c3nnc(C)c(=O)[nH]3)N=C2C)cc1	inconclusive: 29.1 µM [cytotoxic, single point]	–
COc1ccc(N=c2scc(-c3ccc(OC)cc3)n2CCO)cc1	inconclusive: 14.6 µM [cytotoxic, partial curve, poor fit]	–
COc1cc(OC)cc(C2=Cc3ccccc3C(CC(C)=O)N2c2ccc(-c3cncnc3)cc2)c1 (stereo not drawn)	active: 23.1 µM	–
COc1cc(-c2[nH]ncc2CN2CCN(c3cccc(C)n3)CC2)cc(OC)c1OC	inconclusive: 16.4 µM [cytotoxic, single point]	–
COc1ccc2c(c1OC)C(=O)OC2C1c2c(cc3c(c2OC)OCO3)CCN1C (stereo not drawn)	inconclusive: 23.1 µM [cytotoxic, single point]	–
CC(=O)Nc1ccc(NC(=O)[C@@H](NC(=O)N2C[C@H]3C[C@@H](C2)c2cccc(=O)n2C3)C(C)C)cc1	–	inactive: 0%
CCOc1cc(C2Nc3cccc4cccc(c34)N2)ccc1O	inconclusive: 8.2 µM [rising, partial curve]	–
Cc1c(-n2cc(C(=O)c3cc(F)ccc3O)cc(C#N)c2=O)c(=O)n(-c2ccccc2)n1C	–	inactive: 6.74%
C1CCCCCC(NCCN2CCNCC2)CCCCC1	active: 16.4 µM	–
CS(=O)(=O)N1CCCC(C(=O)c2cccc(Cl)c2)C1 (stereo not drawn)	inconclusive: 29.1 µM [rising, single point]	–
O=C(N/N=C/c1ccccn1)c1sc2ccccc2c1Cl	inconclusive: 18.4 µM [cytotoxic, single point]	–
Cc1ccc(S(=O)(=O)NC(=O)COc2cc(C)ccc2C(C)C)cc1	–	inactive: -6.18%
CCc1ccc(CN(C(=O)c2oc3ccccc3c2C)C2CCS(=O)(=O)C2)cc1 (stereo not drawn)	inconclusive: 29.1 µM [cytotoxic, single point]	–
C[C@]12C(=O)N(c3ccc(C(F)(F)F)cc3)C(=O)N1[C@H]1c3ccccc3OC[C@@H]1[C@H]2c1ccccc1	inconclusive: 29.1 µM [cytotoxic, single point]	–
Cc1ccc(C(C(=O)NC2CCCCC2)N(C(=O)Cc2c[nH]c3ccccc23)c2ccccc2)o1 (stereo not drawn)	active: 18.4 µM	–
CCc1nc2ccc(C(=O)N(C)Cc3ccco3)cn2c1N(C)Cc1ccc(OC)cc1	–	inactive: -0.0052%
CS(=O)(=O)c1ccc(C(=O)OCC(=O)N2CCc3ccccc32)cc1[N+](=O)[O-]	inconclusive: 18.4 µM [cytotoxic, single point]	–
Cc1ccc(OCC(=O)NN2C(=O)c3ccccc3C2=O)cc1	–	inconclusive: 2.42%
COc1ccc(C(=O)OCC(=O)c2ccco2)cc1[N+](=O)[O-]	–	inactive: 0.0019%
COc1ccc(Cn2nnnc2C(C(C)C)N2CCN(c3ccccc3OC)CC2)cc1 (stereo not drawn)	active: 18.4 µM	–
CC(=O)C1=NN(c2ccccc2)C(c2cccs2)N1c1ccc(N(C)C)cc1 (stereo not drawn)	inconclusive: 25.9 µM [cytotoxic, partial curve, poor fit]	–

A stretch from the list above:
SMILES	Potency	activity change, negative = cytotoxic
COc1ccc(Cn2nnnc2C(C(C)C)N2CCN(c3ccccc3OC)CC2)cc1 (stereo not drawn)	active: 18.4 µM	–
CC(=O)C1=NN(c2ccccc2)C(c2cccs2)N1c1ccc(N(C)C)cc1 (stereo not drawn)	inconclusive: 25.9 µM [cytotoxic, partial curve, poor fit]	–

Next results.

SMILES	Potency	activity change, negative = cytotoxic
N#Cc1ccccc1NC(=O)C1SC(=Nc2ccccc2)C(C(=O)Nc2ccc(Cl)cc2)=C1N (stereo not drawn)	active: 5.17 µM	–
C=Cc1ccc(Cn2c(C(=O)O)c(CNCc3ccccc3)c3ccc(C)cc32)cc1	inconclusive: 20.6 µM [cytotoxic, single point]	–
C/C(=N\NC(=O)c1cc(C)oc1C)c1ccc2c(c1)OCO2	inconclusive: 29.1 µM [rising, single point]	–
COc1ccc(S(=O)(=O)N(CC(=O)N2CCCCCC2)c2ccccc2OC)cc1	inconclusive: 0.366 µM [rising, full curve, poor fit]	–
CC(C)(C)C(=O)Cn1c(=N)n(Cc2ccccc2)c2ccccc21	inconclusive: 14.6 µM [cytotoxic, partial curve]	–
COc1ccc(NC(=O)c2ccc3c(=O)n4nc(Nc5cccc(Cl)c5C)sc4nc3c2)cc1	–	inactive: 10%
Cn1c(NCc2ccc(Cl)cc2)nc2ccccc21	–	inactive: 3.83%
O=C1c2ccccc2S(=O)(=O)c2cc(C(=O)N3CCN(c4ccc(Cl)cn4)CC3)ccc21	–	inactive: 9.88%
CCOc1ccccc1NS(=O)(=O)c1ccc(-c2cnc(C3CC3)o2)cc1	active: 0.291 µM	–
CCCn1c(=N)n(CC(=O)c2ccc(Cl)cc2)c2ccccc21	inconclusive: 20.6 µM [cytotoxic, partial curve, poor fit]	–
COC(=O)c1c(C)oc2ccc(N(C(=O)c3ccncc3)S(=O)(=O)c3ccc(C)cc3)cc12	active: 5.17 µM	–
COc1ccc(C(C)(O)c2nc(-c3csc4ccccc34)cs2)cc1 (stereo not drawn)	inconclusive: 29.1 µM [cytotoxic, single point]	–
N#Cc1cc([N+](=O)[O-])ccc1NC(=O)COC(=O)C1CC2CCCC(C1)C2=O (stereo not drawn)	inconclusive: 32.6 µM [cytotoxic, single point]	–
Fc1cccc(-n2cc(-c3ccccc3)c3c(=S)nc[nH]c32)c1	inconclusive: 20.6 µM [cytotoxic, single point]	–
Cc1ccccc1NC(=O)Cc1nc(COC(=O)c2nc(Cl)ccc2Cl)cs1	–	inactive: 13%
NC(c1csc(NC(=O)Nc2ccc(OC(F)(F)F)cc2)n1)C1CCCCC1 (stereo not drawn)	inconclusive: 29.1 µM [cytotoxic, single point]	–
Cc1ccc(C(=O)N2CCCC(C(=O)c3ccc(Oc4ccccc4)cc3)C2)cn1 (stereo not drawn)	inconclusive: 9.2 µM [cytotoxic, partial curve, poor fit]	–
CCc1nc2c(OCC(=O)c3ccc(Cl)cc3Cl)cccn2c1N(C)C(=O)c1cccs1	inconclusive: 29.1 µM [cytotoxic, partial curve, poor fit]	–
O=c1c2ccccc2ncn1Cc1ccco1	inconclusive: 18.4 µM [rising, single point]	–
Cc1cc(C)cc(NS(=O)(=O)c2ccc3c(c2)CCCN3C(=O)C2CCC2)c1	inconclusive: 13 µM [cytotoxic, partial curve, poor fit]	–
CCN(CC)CCN(Cc1cc2ccc(C)cc2[nH]c1=O)C(=O)Nc1ccc(Cl)cc1	inconclusive: 32.6 µM [cytotoxic, partial curve, poor fit]	–
CN(CC(=O)Nc1ccc(F)cc1)C(=O)CN1C(=O)NC(CCc2ccccc2)C1=O (stereo not drawn)	–	inactive: -0.59%
CCc1cc2cc(C)ccc2nc1SCC(=O)N1CC(=O)Nc2ccccc21	inconclusive: 29.1 µM [cytotoxic, single point]	–

SMILES	Potency	activity change, negative = cytotoxic
CC(=O)c1sc(NC(=O)c2cc(-c3ccccc3)nn2-c2ccccc2)nc1C	inconclusive: 23.1 µM [cytotoxic, single point]	–
COc1ccc2[nH]cc(C(=O)CCl)c2c1	active: 11.6 µM	–
CSCCC1(C(=O)O)NC(c2ccccc2O)C2C(=O)N(C(C)C)C(=O)C21 (stereo not drawn)	inconclusive: 0.651 µM [cytotoxic, full curve]	–
CC(=O)Nc1ccc(S(=O)(=O)NCCC(=O)NC2CCCCCC2)cc1	–	inactive: -11.8%
C=CCOc1ccc(C(=O)Nc2ccccc2C(=O)NCc2cccnc2)cc1	active: 5.17 µM	–
Cn1c(=O)c2c(nc(NCc3ccc4c(c3)OCO4)n2Cc2ccccc2)n(C)c1=O	active: 23.1 µM	–
O=C(NNC(=O)c1ccc(O)c(Cl)c1)c1cccc(S(=O)(=O)N2CCOCC2)c1	inconclusive: 29.1 µM [cytotoxic, single point]	–
CC(C)(C)Cc1c(-c2ccc(C#N)cc2)nc2c(Cl)cc(C(F)(F)F)cn12	inconclusive: 29.1 µM [cytotoxic, single point]	–
COc1ccccc1C(=O)N1CCN(c2nc3cc(C)cc(C)c3cc2C#N)CC1	–	inactive: 0%
Cc1cccc(C)c1NC(=O)CN1CCN(C(=O)c2ccc(OCc3cn4ccccc4n3)cc2)CC1	–	inactive: -6.53%
Cc1cccc(C)c1NC(=O)CNC(=O)C(C)N1CCN(c2cccc(Cl)c2)CC1 (stereo not drawn)	inconclusive: 20.6 µM [cytotoxic, single point]	–
COc1ccc(-c2cc(C(F)(F)F)n3nc(C(=O)NCC45CC6CC(CC(C6)C4)C5)cc3n2)cc1	inconclusive: 25.9 µM [cytotoxic, single point]	–
O=C(NC(c1ccc(Cl)cc1)c1c(O)ccc2ccccc12)c1ccccc1 (stereo not drawn)	inconclusive: 29.1 µM [cytotoxic, single point]	–
Cc1ccc(C(=O)CSC2=C(C#N)C(c3ccco3)C3=C(CCCC3=O)N2)cc1 (stereo not drawn)	inconclusive: 18.4 µM [cytotoxic, single point]	–
CN1CC(c2ccccc2)C2(COc3ccccc3C2=O)C12C(=O)Nc1ccccc12 (stereo not drawn)	inconclusive: 29.1 µM [cytotoxic, single point]	–
CCOC(=O)c1ccccc1NC(=O)CSc1ccc(-c2ccccn2)nn1	inconclusive: 16.4 µM [cytotoxic, single point]	–
O=C(CSc1nnc2ccc(-c3cccnc3)nn12)Nc1ccc(F)cc1	inconclusive: 29.1 µM [cytotoxic, single point]	–
Cc1c(C(=O)OC2CCCC2)[nH]c2c1C(=O)CC(c1ccco1)C2 (stereo not drawn)	active: 0.517 µM	–
COc1ccccc1NC(=S)NCc1ccccn1	inconclusive: 20.6 µM [rising, single point]	–
COc1ccc(Cc2nnc(NC(=O)CSc3ccc(C)cc3)s2)cc1OC	–	inactive: 7.39%
COC(=O)c1ccccc1NC(=O)COc1ccccc1C(=O)Nc1ccccc1	–	inconclusive: -83.5%
Cc1n[nH]c(C)c1CCCCOc1ccc([N+](=O)[O-])cc1	inconclusive: 18.4 µM [cytotoxic, partial curve, poor fit]	–

Single records, as listed above. Values in the order: Potency | activity change, negative = cytotoxic
`COC(=O)c1c(C)oc2ccc(N(C(=O)c3ccncc3)S(=O)(=O)c3ccc(C)cc3)cc12` is entered as active: 5.17 µM | –
`CCc1nc2ccc(C(=O)N(C)Cc3ccco3)cn2c1N(C)Cc1ccc(OC)cc1` is entered as – | inactive: -0.0052%
